The list shows a part of the results.
Experiments:
Assay in all cases: log2 fold change, soluble protein after heating vs DMSO (PISA); higher = thermal stabilisation; K562 lysate, 10 uM; active = over 0.2 and 3.5 SD of the protein, either way, in both replicates (recomputed)
[1] = compound: C1=CC=C(C=C1)[C@H](COC2=CC3=C(C=C2)NC(=O)N3)NC(=O)C4=CC=CN(C4=O)CC5=CC(=C(C=C5)F)F
Method in brief: (§1)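 To prepare the extract, K562 pellets were dounce-homogenised in PBS pH 7.4 with 1 mM MgCl2, giving crude material at 1 mg/mL protein. This was treated with 10 μM compound for 30 min, then heated in aliquots for 3 min over 48°C-58°C before pooling and addition of NP-40 to 0.5% at 4°C. Centrifugation at 21,000xg for 90 min left soluble protein in the supernatant, which TMTpro 16plex LC-MS/MS quantified with equalised channel sums. Results are log-two fold changes in thermal stability compared with solvent controls, from duplicates.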

Sequences of proteins named here, by UniProt entry; tags and fusion partners are left off. A change or cut given only in a name is not applied to a line headed by its entry.
UniProt P61956, whole entry, looked up: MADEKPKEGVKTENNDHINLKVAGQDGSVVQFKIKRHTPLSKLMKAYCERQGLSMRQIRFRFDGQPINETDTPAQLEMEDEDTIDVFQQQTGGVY
UniProt O43761: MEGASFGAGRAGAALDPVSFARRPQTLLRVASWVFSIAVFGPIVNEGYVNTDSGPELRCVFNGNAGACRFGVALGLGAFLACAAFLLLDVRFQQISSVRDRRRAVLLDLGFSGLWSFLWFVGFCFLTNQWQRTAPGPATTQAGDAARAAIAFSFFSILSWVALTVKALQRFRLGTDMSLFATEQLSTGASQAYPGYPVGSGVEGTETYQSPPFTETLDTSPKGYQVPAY
UniProt P32856: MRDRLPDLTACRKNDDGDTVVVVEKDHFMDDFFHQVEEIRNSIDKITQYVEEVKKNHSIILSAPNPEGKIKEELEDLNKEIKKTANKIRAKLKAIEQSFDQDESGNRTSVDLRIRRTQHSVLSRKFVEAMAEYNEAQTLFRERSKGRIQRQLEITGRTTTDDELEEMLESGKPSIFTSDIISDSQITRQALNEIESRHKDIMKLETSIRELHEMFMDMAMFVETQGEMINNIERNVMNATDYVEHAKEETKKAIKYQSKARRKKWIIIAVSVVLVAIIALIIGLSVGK

[2] = compound: CC1=C(SC2=C1C(=N[C@H](C3=NN=C(N32)C)CC(=O)N)C4=CC=C(C=C4)Cl)C
Method in brief: as §1

[3] = compound: CC1=C2C(=CC=C1)N=C(N(C2=O)C3=CC=CC=C3C)CN4C=NC5=C(N=CN=C54)N
Method in brief: as §1

[4] = compound: Cc1sc2c(c1C)C(c1ccc(Cl)cc1)=N[C@@H](CC(=O)OC(C)(C)C)c1nnc(C)n1-2
Method in brief: as §1

[5] = compound: c1ccc([C@@H]2C[C@H]2NC2CCNCC2)cc1
Method in brief: as §1

erlotinib = compound: C#Cc1cccc(Nc2ncnc3cc(OCCOC)c(OCCOC)cc23)c1 [erlotinib]
Method in brief: as §1

[6] = compound: C/C(=N\NC(=O)C1=CC(=CC=C1)S(=O)(=O)N2CCOCC2)/C3=C(C=CC(=C3)Cl)O
Method in brief: as §1

[7] = compound: C1=CC(=CC=C1C2=NC3=C(N2)C=C(C=C3)C(=O)N)OC4=CC=C(C=C4)Cl
Method in brief: as §1

[8] = compound: C1=CC2=C(C=CC(=C2)/C=C\3/C(=O)NC(=NCC4=CC=CS4)S3)N=C1
Method in brief: as §1

[9] = compound: C1=CC2=NC=CN=C2C=C1/C=C/3\C(=O)NC(=O)S3
Method in brief: as §1

[10] = compound: C1=CC=C(C=C1)C2=NC(=C(N2)C3=CC=NC=C3)C4=CC(=C(C=C4)Cl)O
Method in brief: as §1

[11] = compound: C1=CC=C2C(=C1)C3=NNC4=CC=CC(=C43)C2=O
Method in brief: as §1

[12] = compound: C1CCN(C1)C(=O)NC2=CC=CC(=C2)NC3=NC=C(C(=N3)NCCC4=CN=CN4)Br
Method in brief: as §1

[13] = compound: C1CN(CCC1(CC2=CC=C(C=C2)Cl)N)C3=NC=NC4=C3C=CN4
Method in brief: as §1

IRAK-1-4 Inhibitor I = compound: C1COCCN1CCN2C3=CC=CC=C3N=C2NC(=O)C4=CC(=CC=C4)[N+](=O)[O-] [IRAK-1-4 Inhibitor I]
Method in brief: as §1

ibrutinib = compound: C=CC(=O)N1CCC[C@@H](n2nc(-c3ccc(Oc4ccccc4)cc3)c3c(N)ncnc32)C1 [ibrutinib]
Method in brief: as §1

[14] = compound: CC(=O)c1cnc2ccc(-c3cc(Cl)c(O)c(Cl)c3)nc2c1N[C@H]1CC[C@H](CN(C)C)CC1
Method in brief: as §1

ralimetinib = compound: CC(C)(C)Cn1c(N)nc2ccc(-c3[nH]c(C(C)(C)C)nc3-c3ccc(F)cc3)nc21 [ralimetinib]
Method in brief: as §1

[15] = compound: CC(C)(O)CC(=O)NCCn1ccc2ncnc(Nc3ccc(Oc4cccc(C(F)(F)F)c4)c(Cl)c3)c21
Method in brief: as §1

[16] = compound: CC(C)C1=C2N=C(C=C(N2N=C1)NCC3=CC=CC=C3)NCCCCCCN
Method in brief: as §1

[17] = compound: CC1=C(C(CC(=O)N1)C2=CC=C(C=C2)C(F)(F)F)C(=O)NC3=C(C=C4C(=C3)C=NN4)F
Method in brief: as §1

[18] = compound: CC1=C(C2=C(C=C1)C(=O)C3=CC=CC=C3N2CCCN)C
Method in brief: as §1

[19] = compound: CC1=C(C=C(C=C1)NC(=O)C2=CC(=CC=C2)C(C)(C)C#N)NC3=CC4=C(C=C3)N=CN(C4=O)C
Method in brief: as §1

[20] = compound: CC1=C(C=C(C=C1)NC(=O)C2=CC(=CC=C2)N(C)C)NC(=O)C3=CC=C(C=C3)O
Method in brief: as §1

[21] = compound: CC1=CC=C(C=C1)SC2=C3C=C(SC3=CN=C2)C(=O)N
Method in brief: as §1

vemurafenib = compound: CCCS(=O)(=O)Nc1ccc(F)c(C(=O)c2c[nH]c3ncc(-c4ccc(Cl)cc4)cc23)c1F [vemurafenib]
Method in brief: as §1

[22] = compound: CCCS(=O)(=O)Nc1ccc(F)c(C(=O)c2c[nH]c3ncc(Cl)cc23)c1F
Method in brief: as §1

barasertib = compound: CCN(CCCOc1ccc2c(Nc3cc(CC(=O)Nc4cccc(F)c4)[nH]n3)ncnc2c1)CCOP(=O)(O)O [barasertib]
Method in brief: as §1

[23] = compound: CC[C@@H]1C(=O)N(C)c2cnc(Nc3ccc(C(=O)NC4CCN(C)CC4)cc3OC)nc2N1C1CCCC1
Method in brief: as §1

volasertib = compound: CC[C@@H]1C(=O)N(C)c2cnc(Nc3ccc(C(=O)N[C@H]4CC[C@H](N5CCN(CC6CC6)CC5)CC4)cc3OC)nc2N1C(C)C [volasertib]
Method in brief: as §1

[24] = compound: CCn1c(C(=O)N(C2CC2)C2CC2)cc2c3c(ncn3C)c(Nc3cc(C)n(C)n3)nc21
Method in brief: as §1

[25] = compound: CCn1cc(-c2ccnc3[nH]c(-c4cccc(CN(C)C)c4)cc23)c(-c2ccc(NC(=O)N(C)C)cc2)n1
Method in brief: as §1

[26] = compound: CN1CCC(CNc2ccc3ncc(-c4cccc(OC(F)(F)F)c4)n3n2)CC1
Method in brief: as §1

saracatinib = compound: CN1CCN(CCOc2cc(OC3CCOCC3)c3c(Nc4c(Cl)ccc5c4OCO5)ncnc3c2)CC1 [saracatinib]
Method in brief: as §1

sotrastaurin = compound: CN1CCN(c2nc(C3=C(c4c[nH]c5ccccc45)C(=O)NC3=O)c3ccccc3n2)CC1 [sotrastaurin]
Method in brief: as §1

alvocidib = compound: CN1CC[C@H](c2c(O)cc(O)c3c(=O)cc(-c4ccccc4Cl)oc23)[C@H](O)C1 [alvocidib]
Method in brief: as §1

Tubastatin A = compound: CN1CCc2c(c3ccccc3n2Cc2ccc(C(=O)NO)cc2)C1 [Tubastatin A]
Method in brief: as §1

[27] = compound: CNC(=O)C1=CC=CC=C1NC2=NC(=NC=C2Cl)NC3=C(C=C(C=C3)N4CCOCC4)OC
Method in brief: as §1

defactinib = compound: CNC(=O)c1ccc(Nc2ncc(C(F)(F)F)c(NCc3nccnc3N(C)S(C)(=O)=O)n2)cc1 [defactinib]
Method in brief: as §1

[28] = compound: CNc1nc(-c2ccc3c(N)n[nH]c3c2)cc(N2C[C@@H](C(=O)NC3CCCCC3)CC[C@H]2C)n1
Method in brief: as §1

encorafenib = compound: COC(=O)N[C@@H](C)CNc1nccc(-c2cn(C(C)C)nc2-c2cc(Cl)cc(NS(C)(=O)=O)c2F)n1 [encorafenib]
Method in brief: as §1

[29] = compound: COC(=O)[C@H](CCSC)NC(=O)C1=C(C=C(C=C1)NC[C@H](CS)N)C2=CC=CC=C2
Method in brief: as §1

alisertib = compound: COc1cc(Nc2ncc3c(n2)-c2ccc(Cl)cc2C(c2c(F)cccc2OC)=NC3)ccc1C(=O)O [alisertib]
Method in brief: as §1

[30] = compound: COc1cc2nc(-c3cc(F)ccc3O)nc(N[C@@H]3CNC[C@H]3C(C)(C)O)c2cc1OC
Method in brief: as §1

gefitinib = compound: COc1cc2ncnc(Nc3ccc(F)c(Cl)c3)c2cc1OCCCN1CCOCC1 [gefitinib]
Method in brief: as §1

lapatinib = compound: CS(=O)(=O)CCNCc1ccc(-c2ccc3ncnc(Nc4ccc(OCc5cccc(F)c5)c(Cl)c4)c3c2)o1 [lapatinib]
Method in brief: as §1

pictilisib = compound: CS(=O)(=O)N1CCN(Cc2cc3nc(-c4cccc5[nH]ncc45)nc(N4CCOCC4)c3s2)CC1 [pictilisib]
Method in brief: as §1

crizotinib = compound: C[C@@H](Oc1cc(-c2cnn(C3CCNCC3)c2)cnc1N)c1c(Cl)ccc(F)c1Cl [crizotinib]
Method in brief: as §1

[31] = compound: C[C@H](C1=CC=C(C=C1)C(=O)NC2=C3C=CNC3=NC=C2)N
Method in brief: as §1

duvelisib = compound: C[C@H](Nc1ncnc2nc[nH]c12)c1cc2cccc(Cl)c2c(=O)n1-c1ccccc1 [duvelisib]
Method in brief: as §1

gandotinib = compound: Cc1cc(Nc2cc(CN3CCOCC3)c3nc(C)c(Cc4ccc(Cl)cc4F)n3n2)n[nH]1 [gandotinib]
Method in brief: as §1

tozasertib = compound: Cc1cc(Nc2cc(N3CCN(C)CC3)nc(Sc3ccc(NC(=O)C4CC4)cc3)n2)n[nH]1 [tozasertib]
Method in brief: as §1

doramapimod = compound: Cc1ccc(-n2nc(C(C)(C)C)cc2NC(=O)Nc2ccc(OCCN3CCOCC3)c3ccccc23)cc1 [doramapimod]
Method in brief: as §1

bafetinib = compound: Cc1ccc(NC(=O)c2ccc(CN3CC[C@H](N(C)C)C3)c(C(F)(F)F)c2)cc1Nc1nccc(-c2cncnc2)n1 [bafetinib]
Method in brief: as §1

[32] = compound: Cc1cccc(CC(=O)N2CCc3c2ccc(-c2cn(C)c4ncnc(N)c24)c3F)n1
Method in brief: as §1

nilotinib = compound: Cc1cn(-c2cc(NC(=O)c3ccc(C)c(Nc4nccc(-c5cccnc5)n4)c3)cc(C(F)(F)F)c2)cn1 [nilotinib]
Method in brief: as §1

[33] = compound: Cc1nc(Nc2n[nH]c3c2CN(C(=O)N[C@H](CN(C)C)c2ccccc2)C3(C)C)c2sccc2n1
Method in brief: as §1

dasatinib = compound: Cc1nc(Nc2ncc(C(=O)Nc3c(C)cccc3Cl)s2)cc(N2CCN(CCO)CC2)n1 [dasatinib]
Method in brief: as §1

[34] = compound: Cc1ncc(-c2ccnc(Nc3ccc(S(C)(=O)=O)cc3)n2)n1C(C)C
Method in brief: as §1

[35] = compound: Cn1cc(-c2ccc3c(c2)CCN3C(=O)Cc2cccc(C(F)(F)F)c2)c2c(N)ncnc21
Method in brief: as §1

quisinostat = compound: Cn1cc(CNCC2CCN(c3ncc(C(=O)NO)cn3)CC2)c2ccccc21 [quisinostat]
Method in brief: as §1

tipifarnib = compound: Cn1cncc1[C@@](N)(c1ccc(Cl)cc1)c1ccc2c(c1)c(-c1cccc(Cl)c1)cc(=O)n2C [tipifarnib]
Method in brief: as §1

[36] = compound: NC(=O)Nc1cc(-c2cccc(F)c2)sc1C(=O)N[C@H]1CCCNC1
Method in brief: as §1

[37] = compound: NC(=O)c1cnc(N[C@@H]2CCCC[C@@H]2N)nc1Nc1cccc(-n2nccn2)c1
Method in brief: as §1

[38] = compound: NC1(c2ccc(-c3nc4ccn5c(=O)[nH]nc5c4cc3-c3ccccc3)cc2)CCC1
Method in brief: as §1

[39] = compound: NCC(=O)Nc1ccc(-n2nc(C(F)(F)F)cc2-c2ccc3c(ccc4ccccc43)c2)cc1
Method in brief: as §1

vorinostat = compound: O=C(CCCCCCC(=O)Nc1ccccc1)NO [vorinostat]
Method in brief: as §1

silmitasertib = compound: O=C(O)c1ccc2c(c1)nc(Nc1cccc(Cl)c1)c1ccncc12 [silmitasertib]
Method in brief: as §1

[40] = compound: O=C1NC(=O)C(c2cnc3ccccn23)=C1c1cn2c3c(cc(F)cc13)CN(C(=O)N1CCCCC1)CC2
Method in brief: as §1

entospletinib = compound: c1cn2cc(-c3ccc4cn[nH]c4c3)nc(Nc3ccc(N4CCOCC4)cc3)c2n1 [entospletinib]
Method in brief: as §1

Measured: log2 fold change

SUMO2 (UniProt P61956)
inactive: [1] 0.094 | [2] -0.13 | [3] -0.019 | [4] -0.09 | [5] -0.017

SYNGR3 (UniProt O43761)
inactive: [1] 0.077 | [2] -0.04

STX2 (UniProt P32856)
inactive: erlotinib -0.077 | [6] 0.032 | [7] 0.045 | [8] 0.044 | [9] 0.011 | [10] 0.001 | [1] 0.062 | [11] -0.028 | [12] -0.002 | [13] 0.024 | IRAK-1-4 Inhibitor I -0.01 | ibrutinib 0.034 | [14] -0.007 | ralimetinib 0.026 | [15] -0.006 | [16] -0.071 | [17] 0.061 | [18] 0.023 | [19] -0.014 | [20] 0.003 | [2] 0.028 | [3] 0.006 | [21] -0.039 | vemurafenib 0.01 | [22] 0.004 | barasertib -0.014 | [23] 0.201 | volasertib -0.004 | [24] 0.02 | [25] 0.045 | [26] -0.024 | saracatinib 0.087 | sotrastaurin 0.039 | alvocidib -0.017 | Tubastatin A 0.042 | [27] 0.095 | defactinib -0.004 | [28] -0.166 | encorafenib -0.007 | [29] 0.004 | alisertib -0.02 | [30] 0 | gefitinib -0.023 | lapatinib -0.01 | pictilisib -0.032 | crizotinib -0.01 | [31] 0.011 | duvelisib 0.172 | gandotinib 0 | tozasertib 0.01 | doramapimod 0.008 | bafetinib -0.013 | [32] -0.006 | nilotinib -0.056 | [33] 0.022 | dasatinib -0.093 | [34] 0.068 | [4] -0.063 | [35] 0.119 | quisinostat -0.018 | tipifarnib 0.04 | [36] 0.001 | [37] -0.005 | [38] 0.016 | [39] -0.008 | vorinostat -0.12 | silmitasertib 0.015 | [40] -0.023 | [5] -0.026 | entospletinib -0.101

Reference: the supplement of paper PMC10849652
